PubChem BioAssay AID1259308 – NCATS, 2017

Aim: 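Genes whose loss raises luciferase production in HEK293 cells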 (primary screen)
Cells: human HEK293 embryonic kidney cells stably expressing firefly luciferase (HEK-CMV-Luc2-Hygro)
Knock-down reagent: single siRNA against human genes, 0.8 pmol siRNA per well
Duration: 72 h
Measurement: 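Luciferase light (ONE-Glo) measured on one replicate plate set and viability (CellTiter-Glo) on the other, scaled to a negative control siRNA, with robust z-scores and luciferase per cell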
Direction: total luciferase, z-score and total luciferase, % of control: higher = more reporter protein produced; luciferase per cell, z-score: higher = more reporter output per viable cell; viable cells, % of control: higher = more viable cells
Call rule: 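An siRNA counts as active if its total luciferase robust z-score exceeds 3; genes with two or more such siRNAs out of three were retested with fresh siRNAs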
Calls: active = raised luciferase; inactive = no rise
This is one part, drawn at random, of about 59,000 deposited reagents. Of all reagents, about 1,510 (2.6%) got an active call. 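Calls use total luciferase alone and ignore viability, so some active siRNAs may act by altering cell number.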 Entries without a mark were called inactive. Reagents against one gene are numbered here.

gene	reagent	total luciferase, z-score	total luciferase, % of control	luciferase per cell, z-score	viable cells, % of control
SLC25A22	1	-0.654	68.9	-0.774	94.4
SLC25A22	2	-1.66	48.8	-0.773	66.8
SLC25A22	3	-0.29	76.1	-0.536	97.9
TOMM40	1	0.687	95.5	0.771	87.1
TOMM40	2	-0.853	64.9	0.849	58
TOMM40	3	-3.27	16.8	-4.44	60.3
MISO1	1	1.26	107	0.656	100
MISO1	2	-1.54	51.3	-1.01	74.9
MISO1	3	-0.729	67.4	-0.502	86
TOR2A	1	-1.66	48.8	-1.12	73.2
TOR2A	2	-0.727	67.4	0.0862	73.7
TOR2A	3	0.437	90.6	-0.000153	101
RESF1	1	-0.546	71	-1.18	108
RESF1	2	1.53	112	2.08	72.5
RESF1	3	0.611	94	0.457	93.2
SLC35G5	1	-1.26	56.9	-1.21	87.4
SLC35G5	2	0.507	92	2.19	57.8
SLC35G5	3	-0.392	74.1	-0.345	90.7
SLC20A2	1	0.943	101	0.658	94.6
SLC20A2	2	-1.31	55.8	-2.11	109
SLC20A2	3	0.154	85	-0.244	101
GPR156	1	-0.447	73	-0.504	93.1
GPR156	2	1.39	110	0.0954	119
GPR156	3	0.0766	83.4	-0.835	116
THRB-AS1	1	-1.88	44.5	-1.92	82.6
THRB-AS1	2	0.594	93.7	0.686	87.4
THRB-AS1	3	1.68	115	1.29	91.7
COX5B	1	-0.0549	80.8	-0.726	109
COX5B	2	0.375	89.4	0.47	88.2
COX5B	3	-1.46	52.9	-0.544	68.2
EEF1D	1	-0.267	76.6	-0.888	108
EEF1D	2	3.45 (active)	151	2.64	83.9
EEF1D	3	-0.279	76.3	-0.524	97.9
ADGRG6	1	1.95	121	1.36	94.3
ADGRG6	2	1.91	120	1.15	98.9
ADGRG6	3	-1.3	56.1	-1.69	97.7
SPSB2	1	-0.659	68.8	1.41	53
SPSB2	2	0.712	96	-0.102	110
SPSB2	3	-0.421	73.5	-0.0815	83.9
